The text below walks through data of publication PMC7819943, “Rice protein-binding microarrays: a tool to detect cis-acting elements near promoter regions in rice”.

Sequences of proteins named here, by UniProt entry; tags and fusion partners are left off.
UniProt Q0JBA9, entry or part of it: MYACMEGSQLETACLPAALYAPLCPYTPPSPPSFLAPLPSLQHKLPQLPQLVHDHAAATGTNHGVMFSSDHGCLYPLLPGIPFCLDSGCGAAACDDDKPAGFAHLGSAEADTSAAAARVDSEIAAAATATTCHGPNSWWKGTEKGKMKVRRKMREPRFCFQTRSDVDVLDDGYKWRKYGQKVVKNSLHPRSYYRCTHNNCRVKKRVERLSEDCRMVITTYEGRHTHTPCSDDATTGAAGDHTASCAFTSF

This is one part of the list.

The experiment addresses OsWRKY34 (Oryza sativa, UniProt Q0JBA9 1-250). In words: protein-binding microarray (RPBM); PBS, 2% BSA, 51.3 ng/ul salmon testes DNA, 50 uM zinc acetate, 200 nM TF, 25 C, 1 h; high values mean tight binding. To be noted: protein: recombinant; tags: N-terminal polyhistidine and DsRed monomer fusion (pET32a); label: CyDye5-dUTP incorporated in the synthesized complementary strand; 3' TTTTT single-stranded linker to array surface; dsDNA, one strand shown. In a few lines:
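Binding signal is defined as the fluorescence intensity of each feature in arbitrary units, read on an Axon 4000B scanner. Transcription factors with N-terminal polyhistidine and DsRed fusions came from E. coli BL21-CodonPlus and were purified on Ni–NTA. They were incubated at 200 nM for 1 h at 25 °C on a custom Agilent array that had been made double-stranded with Cy5-dUTP, with 50 µM zinc acetate present, and the array was washed.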
Turning to “GTTCGTCCCCAACGCCACGCCGCCACCAACCGCGCCGCCCCGGAGTCACCTAGTGCAG”, the binding signal is 8500 fluorescence intensity (a.u.). “CTCGCATGCCATTTTCCATGTACGCAAGTACCTCACATACCGGAGTCACCTAGTGCAG”: the binding signal was 10600 fluorescence intensity (a.u.).

Regarding “TCTCCTCTGGTCCTGCCTACCACTTTGGCTGCCCATGCACCGGAGTCACCTAGTGCAG”, the binding signal is 9760 fluorescence intensity (a.u.).

Regarding “ACTCATCATCTTTGTTTCTACATATCCTTTAATACTCTCCCGGAGTCACCTAGTGCAG”, the binding signal was 9830 fluorescence intensity (a.u.).

For the sequence “ATAAGACGAACTGTTAAATATGTTTAAAAAAGTCAACGGCCGGAGTCACCTAGTGCAG”, the binding signal was 8810 fluorescence intensity (a.u.). Take “CTTCCTTCTTGTTTGTTATCGTATGCCCATGGCGACTCCTCGGAGTCACCTAGTGCAG”: the binding signal is 10900 fluorescence intensity (a.u.).

For the sequence “CGTTGTCCTTTTTTTCTCTCTTTCTTCTTCTTCTTCTTCTCGGAGTCACCTAGTGCAG”, the binding signal is 15500 fluorescence intensity (a.u.). On to “ACTGGTAAATACTCCCTTTTGTTTGAATTCACACTGCACCCGGAGTCACCTAGTGCAG”, for which the binding signal is 9790 fluorescence intensity (a.u.). As to “CTCTGCTTTGCTTGCTTCTTCACCCAACTACCACCACCTCCGGAGTCACCTAGTGCAG”, the binding signal was 8940 fluorescence intensity (a.u.). Turning to “CGTCTTAGTTACCCTTCTACTCCTATCGCTCGATCGCCTCCGGAGTCACCTAGTGCAG”, the binding signal is 8380 fluorescence intensity (a.u.). Next, “CTCGTGCTACATGTTTGTACTTTGTCCCTATTTAAATCCCCGGAGTCACCTAGTGCAG”: 8700 fluorescence intensity (a.u.); “GTAGAGCCACCCTGATGGACGGTAGACATGACCCTTACCACGGAGTCACCTAGTGCAG”: 8460 fluorescence intensity (a.u.). As for “TTAACTGAAACCATTCGATTCATCATTGTTTTATACTAGTCGGAGTCACCTAGTGCAG”, the binding signal is 9480 fluorescence intensity (a.u.). “TCTGTTAGTCTCTGCCACGAACGCACGAGCACTGCATCTCCGGAGTCACCTAGTGCAG”: the binding signal was 9870 fluorescence intensity (a.u.). To “ATATATATATATATATATATATTGATGATTTAATGAAACTCGGAGTCACCTAGTGCAG” belongs 9020 fluorescence intensity (a.u.). For the sequence “CACTCCCGTAACCGATTCGCTTTCACACGACACCGCGACGCGGAGTCACCTAGTGCAG”, the binding signal is 8310 fluorescence intensity (a.u.).

Turning to “TAGATTTATAGTACTAGGATATGTCACATCATTTGTTTTTCGGAGTCACCTAGTGCAG”, the binding signal was 10200 fluorescence intensity (a.u.). For “GGGTTAATCGGGTCTACACGCGTGACATGCGCCGCAACGACGGAGTCACCTAGTGCAG”, the binding signal is 11200 fluorescence intensity (a.u.). As to “CTGAATGGCTATTGTCTATGTGGTATATTTGGTTGTTGCTCGGAGTCACCTAGTGCAG”, the binding signal is 8840 fluorescence intensity (a.u.).

As for “CTCCGCCTCAAACCTCGCGCGCTCCCGCGTCGCGCGCCGCCGGAGTCACCTAGTGCAG”, the binding signal was 8060 fluorescence intensity (a.u.). “GGCTTTTCTTGGGCTTAATGGGCTGCACATACTTCCACCGCGGAGTCACCTAGTGCAG”: the binding signal is 10300 fluorescence intensity (a.u.). On to “ATTTTTATTTATGCATGATGTCATTGTTCCATTAATTTCTCGGAGTCACCTAGTGCAG”, for which the binding signal is 9410 fluorescence intensity (a.u.). Turning to “CCCCTACTATTTTCTAGGCTAGGAAGCGTGCGATCTTTTCCGGAGTCACCTAGTGCAG”, the binding signal was 8280 fluorescence intensity (a.u.). For “CGGCTGGTGTAGCTCAGTTCGTACGTGTTCTGCCTTTATACGGAGTCACCTAGTGCAG”, the binding signal was 11000 fluorescence intensity (a.u.). As to “GATTCGCCACCGCGAATCCCACCACCACCCGCAGATCTCCCGGAGTCACCTAGTGCAG”, the binding signal was 8420 fluorescence intensity (a.u.). For “TCCCCACCAGATTACACTACCATTCCACCTAGCTTAATTTCGGAGTCACCTAGTGCAG”, the binding signal is 11200 fluorescence intensity (a.u.). With “GTGTAACTTGTTTTGCTAGGGTTTTTGATTGCTTTTTACTCGGAGTCACCTAGTGCAG”, the binding signal is 12000 fluorescence intensity (a.u.).

As to “ATATAACAGGGCGTAAATTTTTGGGTGGGATCTAAACCGGCGGAGTCACCTAGTGCAG”, the binding signal was 10600 fluorescence intensity (a.u.).

As for “CGGCGGCGGCGGCGGCGGCGGCGGAGGTGGTGTGGGTGGGCGGAGTCACCTAGTGCAG”, the binding signal was 8220 fluorescence intensity (a.u.). Regarding “GTCTCTCTTTCTTCTAGCTCTCTCTCTCTCTCTCTCTCTCCGGAGTCACCTAGTGCAG”, the binding signal is 9780 fluorescence intensity (a.u.). Regarding “AACTCCAAACACTTACATCCCGTTATAACGCACGAGTACTCGGAGTCACCTAGTGCAG”, the binding signal is 9280 fluorescence intensity (a.u.). Take “CTTAGTTCTCCGCGCTATTCACTTCTGCGCCGTCGCTTTTCGGAGTCACCTAGTGCAG”: the binding signal was 8640 fluorescence intensity (a.u.). For “TTGGTTATGATGTGGGACTGCCCAGCATTTGCTCCTCAAGCGGAGTCACCTAGTGCAG”, the binding signal was 8420 fluorescence intensity (a.u.).

For the sequence “GTTATCTTCTTCCCCGATGCATGCATCATCATTTCCTCGCCGGAGTCACCTAGTGCAG”, the binding signal is 9200 fluorescence intensity (a.u.).

For “ATTTAGCCGCACCCTTCGTCTCTCCACCCAAACCAAAACCCGGAGTCACCTAGTGCAG”, the binding signal is 9710 fluorescence intensity (a.u.). With “GTCCAATCTTGTCACCCGGCATCCTTGATCGCTTTGGACCCGGAGTCACCTAGTGCAG”, the binding signal was 8180 fluorescence intensity (a.u.).

As for “TCGCCAACACCAACCTAGTCACTAGATCATCGGCTTGTCTCGGAGTCACCTAGTGCAG”, the binding signal is 8910 fluorescence intensity (a.u.).

In the case of “TCCTCATCCCTGCTTCCTCTTCTACACCTCATTTTCCGCTCGGAGTCACCTAGTGCAG”, the binding signal was 10900 fluorescence intensity (a.u.). As to “AAAATCTTGACATAAACCAACACATTAGACCTTTCGTCTTCGGAGTCACCTAGTGCAG”, the binding signal was 8090 fluorescence intensity (a.u.).

Turning to “GGGTTAGGGTTGGGGCGCCCATCTCCATCTGGCGAGCAGACGGAGTCACCTAGTGCAG”, the binding signal is 9270 fluorescence intensity (a.u.). For the sequence “ATTCGTCTCACAATTTACATGCAAACTGTGCAATTGGTTTCGGAGTCACCTAGTGCAG”, the binding signal was 8070 fluorescence intensity (a.u.). Take “TATATATCTGGGTGATTGGTGGTGAGTAGTTGTTCTTGCTCGGAGTCACCTAGTGCAG”: the binding signal is 11400 fluorescence intensity (a.u.).
